{"source": "patent US4975450A", "about": "“Antidiarrheal” (Slovenska Akademia Vied, priority 1987, dated 1990)", "experiment": "retention of stomach content", "assay_type": "in vivo", "details": "active substance 10-20 mg/kg; atropin dose not stated", "data": [{"smiles": "CN1C2CCC1CC(OC(=O)C(CO)c1ccccc1)C2", "note": "(stereo not shown) [atropin, reference compound]", "values": [{"measurement": "retention of stomach content", "value": "increases"}]}]}
